Laboratory results: PubChem BioAssay AID1508597 (Cure First, 2020)

Purpose: 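Genes whose silencing sensitises or protects ovarian cancer cells against rucaparib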 (primary screen)
Cell system: human ovarian carcinoma lines grown from tumours: OCI-P5x (papillary serous) and OCI-C5x (clear cell)
Knock-down reagent: siRNA pool against human genes, 1.25 pmol siRNA per well
Timing: 72 h or 96 h, depending on the cell culture
Challenge: rucaparib 20 µM (about IC30) or vehicle, present until read-out
Rucaparib or vehicle: Vehicle
Cell line: OCI-C5x (clear cell)
Detection: 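ATP luminescence measured at 72 or 96 h according to the culture, then normalised and expressed as percent viability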
Scale: viability, normalised: higher = more viable cells remaining
Rule for the call: 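Active when normalised viability falls below 80 percent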
Calls: active = viability under 80%; inactive = viability 80% or more
This is an unselected part of the about 2,100 reagents, in one setting of the screen. 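Calls flag viability under 80% in either arm, not effects specific to rucaparib; the reference for percent is not stated.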 Some reagents were tested in more than one well and are listed for each. Not stated in the record: the 100% reference.

For UTY, technical replicate 1, what was measured?
viability, normalised (%): 29.6; call: active

For UTY, technical replicate 2, what was measured?
viability, normalised (%): 40.5; call: active

With UTY, technical replicate 3, how do the results read?
viability, normalised (%): 37.5; call: active

For DDX19B (DEAD-box helicase 19B), technical replicate 1, what was measured?
viability, normalised (%): 41.1; call: active

Which result is listed for DDX19B (DEAD-box helicase 19B), technical replicate 2?
viability, normalised (%): 44.5; call: active

For DDX19B (DEAD-box helicase 19B), technical replicate 3, what does the deposit list?
viability, normalised (%): 37.9; call: active

For DDX42 (DEAD-box helicase 42), technical replicate 1, what does the deposit list?
viability, normalised (%): 32.9; call: active

With DDX42 (DEAD-box helicase 42), technical replicate 2, how do the results read?
viability, normalised (%): 53.1; call: active

How did the screen score DDX42 (DEAD-box helicase 42), technical replicate 3?
viability, normalised (%): 42.3; call: active

How did the screen score CDK14 (cyclin dependent kinase 14), technical replicate 1?
viability, normalised (%): 78.7; call: active

What is on record for CDK14 (cyclin dependent kinase 14), technical replicate 2?
viability, normalised (%): 67.2; call: active

Which result is listed for CDK14 (cyclin dependent kinase 14), technical replicate 3?
viability, normalised (%): 69.5; call: active

6 of these entries, set out differently.
Gene | technical replicate | viability, normalised (%) | call
UTY | 3 | 37.5 | active
DDX19B (DEAD-box helicase 19B) | 1 | 41.1 | active
DDX19B (DEAD-box helicase 19B) | 2 | 44.5 | active
DDX19B (DEAD-box helicase 19B) | 3 | 37.9 | active
DDX42 (DEAD-box helicase 42) | 1 | 32.9 | active
DDX42 (DEAD-box helicase 42) | 2 | 53.1 | active

Continued:
For AURKC (aurora kinase C), technical replicate 1, what was measured?
viability, normalised (%): 39.2; call: active

Which result is listed for AURKC (aurora kinase C), technical replicate 1?
viability, normalised (%): 61; call: active

What did the screen give for AURKC (aurora kinase C), technical replicate 2?
viability, normalised (%): 72.9; call: active

What is on record for AURKC (aurora kinase C), technical replicate 2?
viability, normalised (%): 32.6; call: active

How did the screen score AURKC (aurora kinase C), technical replicate 3?
viability, normalised (%): 67; call: active

How did the screen score AURKC (aurora kinase C), technical replicate 3?
viability, normalised (%): 53.5; call: active

What did the screen give for BRD3 (bromodomain containing 3), technical replicate 1?
viability, normalised (%): 41.1; call: active

For BRD3 (bromodomain containing 3), technical replicate 1, how do the results read?
viability, normalised (%): 8.59; call: active

What did the screen give for BRD3 (bromodomain containing 3), technical replicate 2?
viability, normalised (%): 29; call: active

What did the screen give for BRD3 (bromodomain containing 3), technical replicate 2?
viability, normalised (%): 36.3; call: active

How did the screen score BRD3 (bromodomain containing 3), technical replicate 3?
viability, normalised (%): 18.3; call: active

What did the screen give for BRD3 (bromodomain containing 3), technical replicate 3?
viability, normalised (%): 35; call: active

With PDIK1L (PDLIM1 interacting kinase 1 like), technical replicate 1, what was measured?
viability, normalised (%): 52; call: active

With PDIK1L (PDLIM1 interacting kinase 1 like), technical replicate 2, how do the results read?
viability, normalised (%): 75.8; call: active

For PDIK1L (PDLIM1 interacting kinase 1 like), technical replicate 3, what was measured?
viability, normalised (%): 70.2; call: active

Which result is listed for DRD2 (dopamine receptor D2), technical replicate 1?
viability, normalised (%): 62.7; call: active

How did the screen score DRD2 (dopamine receptor D2), technical replicate 2?
viability, normalised (%): 60.4; call: active

What did the screen give for DRD2 (dopamine receptor D2), technical replicate 3?
viability, normalised (%): 43.7; call: active

With BCL2 (BCL2 apoptosis regulator), technical replicate 1, how do the results read?
viability, normalised (%): 52.7; call: active

What is on record for BCL2 (BCL2 apoptosis regulator), technical replicate 2?
viability, normalised (%): 64.8; call: active

What did the screen give for BCL2 (BCL2 apoptosis regulator), technical replicate 3?
viability, normalised (%): 62.6; call: active
